Source: paper doi:10.1101/2019.12.31.889139
No constants are given. Whether binding was seen depends on the method and setting. Binding seen in cells or lysates may run through a third protein. Some entries that bind do so weakly or less than the wild type. Tags and fused reporters may be left off the sequences shown.

Chains of the proteins cited; added tags and fusions are not shown. Residues count along the entry.
UniProt P05067, residues 18-770: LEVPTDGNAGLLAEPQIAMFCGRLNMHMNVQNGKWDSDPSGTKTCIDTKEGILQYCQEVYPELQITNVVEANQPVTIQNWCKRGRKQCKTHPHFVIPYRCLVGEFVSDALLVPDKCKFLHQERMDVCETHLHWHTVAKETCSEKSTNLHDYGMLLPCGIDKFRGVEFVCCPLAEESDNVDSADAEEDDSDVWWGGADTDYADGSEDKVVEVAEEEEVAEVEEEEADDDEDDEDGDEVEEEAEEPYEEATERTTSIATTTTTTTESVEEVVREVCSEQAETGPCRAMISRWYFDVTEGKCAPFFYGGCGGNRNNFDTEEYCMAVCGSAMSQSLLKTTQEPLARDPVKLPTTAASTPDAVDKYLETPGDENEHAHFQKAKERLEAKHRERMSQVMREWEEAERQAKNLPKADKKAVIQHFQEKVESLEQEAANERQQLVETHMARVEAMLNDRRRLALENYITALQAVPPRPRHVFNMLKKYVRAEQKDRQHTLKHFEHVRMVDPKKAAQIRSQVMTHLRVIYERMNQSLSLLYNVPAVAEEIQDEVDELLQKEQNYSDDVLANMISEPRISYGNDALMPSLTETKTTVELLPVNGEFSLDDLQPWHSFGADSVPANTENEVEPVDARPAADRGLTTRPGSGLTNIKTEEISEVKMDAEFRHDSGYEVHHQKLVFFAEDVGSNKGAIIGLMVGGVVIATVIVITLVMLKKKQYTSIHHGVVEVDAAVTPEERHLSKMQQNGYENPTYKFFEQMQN
UniProt Q07954, residues 20-4544: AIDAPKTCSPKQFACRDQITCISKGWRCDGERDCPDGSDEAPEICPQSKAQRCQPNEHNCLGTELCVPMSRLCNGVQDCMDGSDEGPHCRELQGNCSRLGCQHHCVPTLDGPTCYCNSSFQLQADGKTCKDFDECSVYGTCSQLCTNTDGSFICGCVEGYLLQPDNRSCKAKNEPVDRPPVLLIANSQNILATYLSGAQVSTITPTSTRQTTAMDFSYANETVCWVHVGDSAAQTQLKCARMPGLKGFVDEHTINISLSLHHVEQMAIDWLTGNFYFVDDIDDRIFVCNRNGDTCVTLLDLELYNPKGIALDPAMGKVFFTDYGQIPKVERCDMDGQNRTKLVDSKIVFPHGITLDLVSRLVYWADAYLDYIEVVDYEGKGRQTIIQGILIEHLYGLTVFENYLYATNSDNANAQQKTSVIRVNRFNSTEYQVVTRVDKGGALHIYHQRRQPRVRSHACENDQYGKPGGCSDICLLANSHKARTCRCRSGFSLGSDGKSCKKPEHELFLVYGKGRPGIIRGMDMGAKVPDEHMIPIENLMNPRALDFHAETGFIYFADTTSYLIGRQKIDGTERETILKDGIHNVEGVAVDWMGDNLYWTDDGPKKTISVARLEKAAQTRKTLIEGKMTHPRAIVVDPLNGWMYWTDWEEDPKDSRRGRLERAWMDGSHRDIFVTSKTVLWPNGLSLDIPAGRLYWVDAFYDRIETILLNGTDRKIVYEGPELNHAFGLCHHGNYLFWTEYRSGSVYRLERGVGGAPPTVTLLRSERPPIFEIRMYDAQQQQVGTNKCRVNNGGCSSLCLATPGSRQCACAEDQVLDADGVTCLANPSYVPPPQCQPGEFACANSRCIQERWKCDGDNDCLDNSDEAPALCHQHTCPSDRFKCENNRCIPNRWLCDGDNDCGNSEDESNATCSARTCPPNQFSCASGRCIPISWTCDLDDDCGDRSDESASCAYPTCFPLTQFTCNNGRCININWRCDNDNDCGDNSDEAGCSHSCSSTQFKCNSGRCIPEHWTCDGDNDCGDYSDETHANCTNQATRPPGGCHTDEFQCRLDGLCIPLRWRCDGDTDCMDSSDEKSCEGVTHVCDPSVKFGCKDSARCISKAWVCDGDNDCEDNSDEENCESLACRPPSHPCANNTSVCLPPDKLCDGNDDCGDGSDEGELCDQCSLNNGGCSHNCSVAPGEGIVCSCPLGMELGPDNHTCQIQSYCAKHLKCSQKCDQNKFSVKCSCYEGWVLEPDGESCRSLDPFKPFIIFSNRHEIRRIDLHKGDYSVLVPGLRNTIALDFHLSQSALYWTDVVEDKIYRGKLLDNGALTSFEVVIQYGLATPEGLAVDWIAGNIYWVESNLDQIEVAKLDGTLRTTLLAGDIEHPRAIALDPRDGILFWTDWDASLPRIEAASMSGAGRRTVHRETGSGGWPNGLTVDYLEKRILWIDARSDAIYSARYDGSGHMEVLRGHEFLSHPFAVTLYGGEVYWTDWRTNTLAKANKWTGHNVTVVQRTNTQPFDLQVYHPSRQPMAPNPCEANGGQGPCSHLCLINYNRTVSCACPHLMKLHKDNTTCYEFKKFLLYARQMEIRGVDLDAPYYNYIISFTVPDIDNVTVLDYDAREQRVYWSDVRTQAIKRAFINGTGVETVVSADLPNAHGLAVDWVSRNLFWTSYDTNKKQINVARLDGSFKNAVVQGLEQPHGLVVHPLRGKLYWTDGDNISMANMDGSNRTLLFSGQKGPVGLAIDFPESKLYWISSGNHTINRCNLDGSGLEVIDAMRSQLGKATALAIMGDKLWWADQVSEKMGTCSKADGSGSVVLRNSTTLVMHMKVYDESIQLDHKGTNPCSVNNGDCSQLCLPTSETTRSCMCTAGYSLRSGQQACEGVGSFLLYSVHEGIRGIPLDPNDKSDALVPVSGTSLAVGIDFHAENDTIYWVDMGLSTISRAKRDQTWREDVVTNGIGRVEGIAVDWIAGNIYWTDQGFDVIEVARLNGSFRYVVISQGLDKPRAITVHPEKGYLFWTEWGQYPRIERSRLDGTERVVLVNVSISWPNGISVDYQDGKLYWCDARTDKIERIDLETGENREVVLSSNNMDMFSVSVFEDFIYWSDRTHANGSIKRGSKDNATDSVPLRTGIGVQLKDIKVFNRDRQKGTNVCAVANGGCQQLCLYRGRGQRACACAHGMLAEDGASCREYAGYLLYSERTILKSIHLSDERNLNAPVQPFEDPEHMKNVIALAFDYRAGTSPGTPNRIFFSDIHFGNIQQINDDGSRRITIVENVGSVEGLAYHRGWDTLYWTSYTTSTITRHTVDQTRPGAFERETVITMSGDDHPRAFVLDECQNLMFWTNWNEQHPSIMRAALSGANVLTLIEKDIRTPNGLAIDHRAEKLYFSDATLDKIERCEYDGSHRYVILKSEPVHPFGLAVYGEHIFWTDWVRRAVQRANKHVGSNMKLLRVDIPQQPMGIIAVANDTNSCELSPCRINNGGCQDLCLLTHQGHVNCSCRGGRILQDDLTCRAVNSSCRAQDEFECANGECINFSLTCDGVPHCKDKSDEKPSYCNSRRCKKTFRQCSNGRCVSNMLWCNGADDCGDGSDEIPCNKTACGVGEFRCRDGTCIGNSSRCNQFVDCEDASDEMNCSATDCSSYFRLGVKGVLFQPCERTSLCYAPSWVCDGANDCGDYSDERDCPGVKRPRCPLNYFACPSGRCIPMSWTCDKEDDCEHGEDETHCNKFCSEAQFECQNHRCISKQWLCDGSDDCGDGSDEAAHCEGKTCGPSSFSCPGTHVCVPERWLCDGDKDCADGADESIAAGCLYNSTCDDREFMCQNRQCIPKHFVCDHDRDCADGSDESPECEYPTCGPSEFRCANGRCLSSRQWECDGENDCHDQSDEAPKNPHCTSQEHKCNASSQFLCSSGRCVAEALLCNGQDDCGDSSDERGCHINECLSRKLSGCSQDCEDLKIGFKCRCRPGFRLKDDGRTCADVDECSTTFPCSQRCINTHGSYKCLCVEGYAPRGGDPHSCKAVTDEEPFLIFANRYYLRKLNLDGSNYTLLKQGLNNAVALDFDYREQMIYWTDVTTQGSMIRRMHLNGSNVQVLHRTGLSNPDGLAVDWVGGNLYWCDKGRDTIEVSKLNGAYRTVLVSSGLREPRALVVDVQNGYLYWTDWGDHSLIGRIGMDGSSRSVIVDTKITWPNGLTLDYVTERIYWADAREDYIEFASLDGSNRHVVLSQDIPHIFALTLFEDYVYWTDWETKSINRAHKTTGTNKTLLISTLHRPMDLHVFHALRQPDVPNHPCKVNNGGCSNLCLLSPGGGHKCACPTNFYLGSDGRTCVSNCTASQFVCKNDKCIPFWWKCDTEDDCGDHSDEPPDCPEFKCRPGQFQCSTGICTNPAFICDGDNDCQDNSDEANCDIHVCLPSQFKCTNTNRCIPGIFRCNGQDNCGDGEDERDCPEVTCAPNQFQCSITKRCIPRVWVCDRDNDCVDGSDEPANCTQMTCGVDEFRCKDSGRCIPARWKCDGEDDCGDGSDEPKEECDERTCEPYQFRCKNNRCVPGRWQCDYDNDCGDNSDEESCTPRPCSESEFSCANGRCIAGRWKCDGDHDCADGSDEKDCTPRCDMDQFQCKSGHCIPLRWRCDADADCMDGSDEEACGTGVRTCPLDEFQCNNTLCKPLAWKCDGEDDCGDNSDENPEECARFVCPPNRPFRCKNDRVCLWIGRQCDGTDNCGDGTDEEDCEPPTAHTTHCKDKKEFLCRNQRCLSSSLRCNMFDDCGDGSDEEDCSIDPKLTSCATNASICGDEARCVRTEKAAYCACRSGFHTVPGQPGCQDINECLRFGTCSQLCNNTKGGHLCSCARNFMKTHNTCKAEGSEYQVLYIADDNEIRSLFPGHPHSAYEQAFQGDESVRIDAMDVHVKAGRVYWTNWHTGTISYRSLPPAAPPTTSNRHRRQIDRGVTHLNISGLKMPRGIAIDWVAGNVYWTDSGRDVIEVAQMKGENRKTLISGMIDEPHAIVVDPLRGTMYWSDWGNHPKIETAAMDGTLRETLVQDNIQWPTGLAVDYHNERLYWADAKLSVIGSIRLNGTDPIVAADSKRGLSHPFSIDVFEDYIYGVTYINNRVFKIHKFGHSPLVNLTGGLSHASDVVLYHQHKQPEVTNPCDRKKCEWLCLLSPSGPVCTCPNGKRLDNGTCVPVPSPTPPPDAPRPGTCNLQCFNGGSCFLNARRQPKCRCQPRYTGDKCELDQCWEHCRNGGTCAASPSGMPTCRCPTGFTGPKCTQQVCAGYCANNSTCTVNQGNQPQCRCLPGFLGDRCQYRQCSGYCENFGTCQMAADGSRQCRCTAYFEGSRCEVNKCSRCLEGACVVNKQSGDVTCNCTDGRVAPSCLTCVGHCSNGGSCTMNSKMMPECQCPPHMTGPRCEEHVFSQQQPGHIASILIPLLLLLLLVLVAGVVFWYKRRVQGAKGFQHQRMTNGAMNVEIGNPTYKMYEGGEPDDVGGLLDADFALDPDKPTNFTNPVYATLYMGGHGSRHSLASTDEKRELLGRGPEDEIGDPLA

Biological target: T1, METTL7B-HaloTag fusion protein (human) (UniProt Q6UX53)
T1 sequence: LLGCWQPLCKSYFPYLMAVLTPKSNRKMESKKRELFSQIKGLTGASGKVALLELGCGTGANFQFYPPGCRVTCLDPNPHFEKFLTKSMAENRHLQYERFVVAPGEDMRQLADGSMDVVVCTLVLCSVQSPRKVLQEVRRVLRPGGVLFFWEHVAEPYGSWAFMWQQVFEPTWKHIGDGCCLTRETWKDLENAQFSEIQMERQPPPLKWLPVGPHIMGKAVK
Assay: pull-down

| Substance | binding |
| --- | --- |
| amyloid precursor protein (from UniProt P05067 18-770) | binds |
| LRP1 (from UniProt Q07954) | binds |
